Source: the supplement of paper PMC10849652
This is one part of the list.

Amino acid sequences for entries named in this document (tags omitted). A change or cut given only in a name is not applied to a line headed by its entry.
UniProt P08247, whole entry, looked up: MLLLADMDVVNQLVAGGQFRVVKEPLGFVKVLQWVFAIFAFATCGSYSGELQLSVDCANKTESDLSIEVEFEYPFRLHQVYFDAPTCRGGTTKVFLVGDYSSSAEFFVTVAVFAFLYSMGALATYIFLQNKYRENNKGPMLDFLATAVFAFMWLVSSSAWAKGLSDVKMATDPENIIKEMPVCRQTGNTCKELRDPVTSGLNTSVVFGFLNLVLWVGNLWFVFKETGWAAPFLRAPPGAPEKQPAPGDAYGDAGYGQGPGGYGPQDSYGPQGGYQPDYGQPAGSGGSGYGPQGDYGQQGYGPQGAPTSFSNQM
UniProt O94864: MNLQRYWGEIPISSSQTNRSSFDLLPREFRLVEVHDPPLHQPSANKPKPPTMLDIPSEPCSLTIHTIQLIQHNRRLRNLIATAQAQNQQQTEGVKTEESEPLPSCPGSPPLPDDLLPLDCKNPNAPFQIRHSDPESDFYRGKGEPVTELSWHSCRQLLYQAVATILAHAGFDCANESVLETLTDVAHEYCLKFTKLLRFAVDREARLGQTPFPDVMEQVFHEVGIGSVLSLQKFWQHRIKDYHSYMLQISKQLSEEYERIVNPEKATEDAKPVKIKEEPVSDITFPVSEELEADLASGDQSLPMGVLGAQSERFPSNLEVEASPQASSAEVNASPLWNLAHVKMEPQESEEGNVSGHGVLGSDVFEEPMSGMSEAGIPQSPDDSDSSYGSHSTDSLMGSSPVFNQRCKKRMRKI
UniProt Q9NRP7: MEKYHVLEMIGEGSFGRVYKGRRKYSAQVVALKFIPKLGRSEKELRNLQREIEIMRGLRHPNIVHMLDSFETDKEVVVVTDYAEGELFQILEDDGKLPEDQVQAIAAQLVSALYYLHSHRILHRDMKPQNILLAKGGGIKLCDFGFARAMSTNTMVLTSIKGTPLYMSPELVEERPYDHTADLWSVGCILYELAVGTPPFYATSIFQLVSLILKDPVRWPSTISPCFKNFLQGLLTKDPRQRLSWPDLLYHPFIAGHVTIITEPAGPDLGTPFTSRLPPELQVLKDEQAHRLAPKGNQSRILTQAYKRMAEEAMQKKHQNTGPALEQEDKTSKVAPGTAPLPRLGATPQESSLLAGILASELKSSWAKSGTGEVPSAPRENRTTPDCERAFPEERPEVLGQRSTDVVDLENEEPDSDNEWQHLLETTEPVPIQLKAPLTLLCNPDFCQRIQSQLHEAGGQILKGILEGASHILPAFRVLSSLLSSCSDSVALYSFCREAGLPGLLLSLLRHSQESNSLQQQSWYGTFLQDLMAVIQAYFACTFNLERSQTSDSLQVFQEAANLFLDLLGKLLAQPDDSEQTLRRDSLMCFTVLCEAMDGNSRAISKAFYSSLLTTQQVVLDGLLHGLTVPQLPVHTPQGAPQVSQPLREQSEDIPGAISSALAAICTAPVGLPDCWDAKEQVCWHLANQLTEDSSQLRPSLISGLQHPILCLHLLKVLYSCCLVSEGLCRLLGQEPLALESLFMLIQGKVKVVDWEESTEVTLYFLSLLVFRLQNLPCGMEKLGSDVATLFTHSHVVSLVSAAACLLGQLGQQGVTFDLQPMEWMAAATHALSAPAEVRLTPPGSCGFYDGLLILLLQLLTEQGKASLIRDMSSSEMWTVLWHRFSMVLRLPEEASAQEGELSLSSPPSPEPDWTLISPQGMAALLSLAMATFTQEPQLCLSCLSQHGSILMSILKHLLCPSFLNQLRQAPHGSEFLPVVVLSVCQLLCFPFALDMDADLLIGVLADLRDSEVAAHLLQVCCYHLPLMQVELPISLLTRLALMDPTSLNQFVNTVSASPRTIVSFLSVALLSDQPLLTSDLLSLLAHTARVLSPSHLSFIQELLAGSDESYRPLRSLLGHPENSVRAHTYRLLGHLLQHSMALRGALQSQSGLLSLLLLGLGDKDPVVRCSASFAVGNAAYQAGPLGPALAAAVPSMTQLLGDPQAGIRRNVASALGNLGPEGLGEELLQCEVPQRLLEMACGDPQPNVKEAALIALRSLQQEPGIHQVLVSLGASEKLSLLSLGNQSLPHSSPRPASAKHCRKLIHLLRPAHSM
UniProt Q13033: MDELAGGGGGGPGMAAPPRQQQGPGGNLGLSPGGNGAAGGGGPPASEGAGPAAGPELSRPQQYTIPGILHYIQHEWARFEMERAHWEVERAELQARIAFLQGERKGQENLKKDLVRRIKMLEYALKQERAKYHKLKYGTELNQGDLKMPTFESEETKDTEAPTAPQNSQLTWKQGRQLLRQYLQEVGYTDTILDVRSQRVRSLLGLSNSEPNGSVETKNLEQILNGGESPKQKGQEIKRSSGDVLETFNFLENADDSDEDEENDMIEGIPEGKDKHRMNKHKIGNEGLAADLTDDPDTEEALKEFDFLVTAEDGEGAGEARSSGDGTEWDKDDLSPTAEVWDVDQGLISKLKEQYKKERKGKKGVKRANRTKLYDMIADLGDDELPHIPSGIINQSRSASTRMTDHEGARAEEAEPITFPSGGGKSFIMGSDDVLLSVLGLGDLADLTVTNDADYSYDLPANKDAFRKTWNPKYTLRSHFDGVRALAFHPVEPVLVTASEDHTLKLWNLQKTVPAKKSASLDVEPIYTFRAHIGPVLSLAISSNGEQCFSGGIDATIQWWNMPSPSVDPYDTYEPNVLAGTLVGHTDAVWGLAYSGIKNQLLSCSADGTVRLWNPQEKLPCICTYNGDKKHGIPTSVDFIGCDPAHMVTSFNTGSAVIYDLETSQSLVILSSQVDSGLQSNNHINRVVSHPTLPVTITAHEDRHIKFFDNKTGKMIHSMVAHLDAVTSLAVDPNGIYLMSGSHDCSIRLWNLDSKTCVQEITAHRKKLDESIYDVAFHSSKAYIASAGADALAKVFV
UniProt O60347: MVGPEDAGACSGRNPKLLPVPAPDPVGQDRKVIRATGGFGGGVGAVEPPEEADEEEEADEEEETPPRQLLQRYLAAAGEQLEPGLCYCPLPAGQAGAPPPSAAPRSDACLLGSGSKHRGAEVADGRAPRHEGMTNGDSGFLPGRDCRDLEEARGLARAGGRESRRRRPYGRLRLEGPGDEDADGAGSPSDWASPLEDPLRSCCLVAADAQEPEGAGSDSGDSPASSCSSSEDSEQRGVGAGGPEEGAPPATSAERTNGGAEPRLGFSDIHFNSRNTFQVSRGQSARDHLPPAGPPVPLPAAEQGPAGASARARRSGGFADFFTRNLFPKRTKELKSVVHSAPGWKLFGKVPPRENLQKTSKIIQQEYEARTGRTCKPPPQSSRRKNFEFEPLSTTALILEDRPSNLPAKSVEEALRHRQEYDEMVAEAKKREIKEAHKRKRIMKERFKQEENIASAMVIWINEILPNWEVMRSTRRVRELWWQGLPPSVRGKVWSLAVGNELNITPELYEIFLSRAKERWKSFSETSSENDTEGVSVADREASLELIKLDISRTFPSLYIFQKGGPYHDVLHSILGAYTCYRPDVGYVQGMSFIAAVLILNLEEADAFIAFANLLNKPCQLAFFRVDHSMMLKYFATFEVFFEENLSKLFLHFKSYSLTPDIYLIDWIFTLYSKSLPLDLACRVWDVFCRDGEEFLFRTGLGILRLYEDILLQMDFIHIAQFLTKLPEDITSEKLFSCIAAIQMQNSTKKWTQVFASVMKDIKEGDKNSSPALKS
UniProt Q16514: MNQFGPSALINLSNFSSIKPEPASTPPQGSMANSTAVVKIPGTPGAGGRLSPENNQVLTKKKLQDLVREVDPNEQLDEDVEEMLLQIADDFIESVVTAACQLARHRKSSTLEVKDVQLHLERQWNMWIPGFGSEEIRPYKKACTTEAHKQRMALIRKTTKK
UniProt Q9UL54: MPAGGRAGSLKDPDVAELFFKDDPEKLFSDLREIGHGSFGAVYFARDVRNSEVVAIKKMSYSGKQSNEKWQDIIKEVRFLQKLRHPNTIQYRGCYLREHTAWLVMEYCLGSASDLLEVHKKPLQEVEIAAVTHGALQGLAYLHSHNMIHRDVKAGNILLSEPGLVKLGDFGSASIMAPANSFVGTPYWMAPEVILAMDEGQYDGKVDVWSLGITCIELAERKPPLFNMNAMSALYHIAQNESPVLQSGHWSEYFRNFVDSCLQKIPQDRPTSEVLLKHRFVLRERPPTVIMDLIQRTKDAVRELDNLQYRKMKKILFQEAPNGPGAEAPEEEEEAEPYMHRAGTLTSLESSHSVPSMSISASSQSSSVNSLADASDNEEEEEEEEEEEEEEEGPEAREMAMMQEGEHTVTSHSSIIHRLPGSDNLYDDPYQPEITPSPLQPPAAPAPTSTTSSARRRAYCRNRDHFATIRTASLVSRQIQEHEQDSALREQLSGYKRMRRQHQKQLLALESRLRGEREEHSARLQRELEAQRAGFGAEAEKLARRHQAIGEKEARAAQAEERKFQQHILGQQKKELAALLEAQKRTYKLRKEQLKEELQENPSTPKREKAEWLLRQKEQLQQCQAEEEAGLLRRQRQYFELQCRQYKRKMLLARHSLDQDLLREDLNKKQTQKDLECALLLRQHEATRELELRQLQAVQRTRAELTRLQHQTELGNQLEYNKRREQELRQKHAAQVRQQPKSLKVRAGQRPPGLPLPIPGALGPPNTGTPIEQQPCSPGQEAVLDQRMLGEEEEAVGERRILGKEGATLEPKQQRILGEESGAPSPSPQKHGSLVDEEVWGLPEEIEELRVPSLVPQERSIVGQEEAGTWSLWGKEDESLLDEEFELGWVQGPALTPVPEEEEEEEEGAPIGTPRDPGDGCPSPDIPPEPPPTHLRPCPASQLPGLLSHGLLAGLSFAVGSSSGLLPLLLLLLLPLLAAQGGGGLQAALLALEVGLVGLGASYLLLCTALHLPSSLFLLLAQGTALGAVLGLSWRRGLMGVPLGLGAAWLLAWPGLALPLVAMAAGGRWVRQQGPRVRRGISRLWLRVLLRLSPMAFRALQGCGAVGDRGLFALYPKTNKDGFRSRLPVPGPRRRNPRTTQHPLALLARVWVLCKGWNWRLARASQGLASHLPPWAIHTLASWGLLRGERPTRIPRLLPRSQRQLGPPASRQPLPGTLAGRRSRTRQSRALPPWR
UniProt Q93075: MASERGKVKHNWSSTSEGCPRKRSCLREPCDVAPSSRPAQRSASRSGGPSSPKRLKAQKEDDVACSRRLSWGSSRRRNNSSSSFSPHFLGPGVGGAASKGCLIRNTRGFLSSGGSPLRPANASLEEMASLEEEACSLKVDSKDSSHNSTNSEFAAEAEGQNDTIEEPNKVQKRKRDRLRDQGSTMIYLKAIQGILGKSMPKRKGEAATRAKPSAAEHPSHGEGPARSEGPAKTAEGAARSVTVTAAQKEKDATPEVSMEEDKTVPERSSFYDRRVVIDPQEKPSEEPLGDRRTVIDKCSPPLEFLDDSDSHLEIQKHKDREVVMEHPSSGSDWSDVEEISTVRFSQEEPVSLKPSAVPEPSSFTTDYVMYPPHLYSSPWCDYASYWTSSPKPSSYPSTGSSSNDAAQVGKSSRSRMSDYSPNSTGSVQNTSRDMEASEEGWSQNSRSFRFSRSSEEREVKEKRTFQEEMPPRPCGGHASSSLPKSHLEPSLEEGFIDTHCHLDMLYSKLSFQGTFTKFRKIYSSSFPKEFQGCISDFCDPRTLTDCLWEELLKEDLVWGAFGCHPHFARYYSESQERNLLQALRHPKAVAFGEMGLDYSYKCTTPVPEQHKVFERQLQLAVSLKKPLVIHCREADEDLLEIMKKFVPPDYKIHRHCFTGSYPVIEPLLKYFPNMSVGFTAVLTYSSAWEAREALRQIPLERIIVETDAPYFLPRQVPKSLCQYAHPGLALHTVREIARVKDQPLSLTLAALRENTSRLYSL
UniProt Q6UWL2: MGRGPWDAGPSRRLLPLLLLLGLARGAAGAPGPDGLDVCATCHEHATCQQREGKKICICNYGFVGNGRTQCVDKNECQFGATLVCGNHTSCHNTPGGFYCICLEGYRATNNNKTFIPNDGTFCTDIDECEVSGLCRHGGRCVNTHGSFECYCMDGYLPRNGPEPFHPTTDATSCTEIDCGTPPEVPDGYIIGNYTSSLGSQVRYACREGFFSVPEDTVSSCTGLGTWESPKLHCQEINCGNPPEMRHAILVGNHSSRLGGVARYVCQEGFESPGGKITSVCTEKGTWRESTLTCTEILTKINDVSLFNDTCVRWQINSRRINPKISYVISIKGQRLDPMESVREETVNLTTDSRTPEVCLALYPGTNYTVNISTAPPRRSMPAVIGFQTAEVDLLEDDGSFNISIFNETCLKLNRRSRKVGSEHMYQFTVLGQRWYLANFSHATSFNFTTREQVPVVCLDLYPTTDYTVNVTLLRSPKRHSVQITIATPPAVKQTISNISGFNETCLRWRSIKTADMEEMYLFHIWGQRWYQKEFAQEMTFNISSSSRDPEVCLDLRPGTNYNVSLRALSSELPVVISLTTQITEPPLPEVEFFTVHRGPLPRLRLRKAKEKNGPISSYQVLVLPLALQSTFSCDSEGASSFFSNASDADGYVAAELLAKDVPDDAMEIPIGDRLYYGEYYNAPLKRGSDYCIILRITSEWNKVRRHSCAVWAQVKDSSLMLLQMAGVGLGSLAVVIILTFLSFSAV

The targets below were run with CCCc1cc(C)[nH]c(=O)c1CNC(=O)c1cc(-c2ccnc(N3CCN(C)CC3)c2)cc2c1cnn2C(C)C (assay: log2 fold change, soluble protein after heating vs DMSO (PISA); higher = thermal stabilisation; K562 cells, 10 uM, 30 min; active = over 0.2 and 3.5 SD of the protein, either way, in both replicates (recomputed)).
Summary of the method: (§1)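 Soluble protein was quantified by TMTpro 16plex LC-MS/MS after channel sums were equalised. It was obtained as the supernatant after 21,000xg for 90 min from pooled aliquots of K562 cells (2×10^6 cells/mL, 10 μM compound, 30 min) heated for 3 min across 48°C-58°C and extracted in PBS with 0.5% NP-40 at 4°C. Thermal stability values are relative to control samples and come from duplicates. They are given as log2 fold changes.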

log2 fold change, inactive:
SYP (UniProt P08247) -0.13
SUPT7L (UniProt O94864) 0.092
STK36 (UniProt Q9NRP7) -0.516
TASP1 (UniProt Q9H6P5) -0.09
SUZ12 (UniProt Q15022) 0.23
STRN3 isoform 2 (UniProt Q13033) -0.087
SUGT1 isoform 2 (UniProt Q9Y2Z0) 0.102
TBC1D12 (UniProt O60347) 0
STK35 (UniProt Q8TDR2) 0.046
SYTL4 (UniProt Q96C24) 0.162
TAF12 (UniProt Q16514) 0.041
TAOK2 (UniProt Q9UL54) 0.007
TAGLN3 (UniProt Q9UI15) 0.038

What follows are targets tested with CCN(CC)Cc1ccc2cc(COC(=O)Nc3ccc(C(=O)NO)cc3)ccc2c1 [givinostat] in the same assay as above.
Summary of the method: as §1

log2 fold change, inactive:
STXBP5L (UniProt Q9Y2K9) -0.003
SYP (UniProt P08247) -0.05
SUPT7L (UniProt O94864) -0.142
STK36 (UniProt Q9NRP7) -0.077
TASP1 (UniProt Q9H6P5) -0.205
TAF5 (UniProt Q15542) -0.229
STRN3 isoform 2 (UniProt Q13033) -0.135
SYK (UniProt P43405) 0.307
STYX (UniProt Q8WUJ0) 0.082
SUGT1 isoform 2 (UniProt Q9Y2Z0) -0.365
TATDN2 (UniProt Q93075) -0.004
TBC1D12 (UniProt O60347) -0.034
SUSD1 isoform 2 (UniProt Q6UWL2) 0.033
SYS1 (UniProt Q8N2H4) -0.069
TATDN1 isoform 2 (UniProt Q6P1N9) 0.112
TADA1 (UniProt Q96BN2) 0.206
SYTL4 (UniProt Q96C24) 0.101
TAF12 (UniProt Q16514) 0.018
TAOK2 (UniProt Q9UL54) -0.363
SWI5 (UniProt Q1ZZU3) 0.005
SUFU (UniProt Q9UMX1) -0.024
TAGLN (UniProt Q01995) 0.103
SULT1E1 (UniProt P49888) -0.027

Each target was assayed with CCN(CCCOc1ccc2c(Nc3cc(CC(=O)Nc4cccc(F)c4)[nH]n3)ncnc2c1)CCOP(=O)(O)O [barasertib] in the same assay as above.
Summary of the method: as §1

log2 fold change, inactive:
SYP (UniProt P08247) -0.009
SUPT7L (UniProt O94864) 0.232
STK36 (UniProt Q9NRP7) 0.078
TBC1D10A (UniProt Q9BXI6) 0.229
STRN3 isoform 2 (UniProt Q13033) -0.035
SYK (UniProt P43405) -0.094
SUGT1 isoform 2 (UniProt Q9Y2Z0) 0.083
TATDN2 (UniProt Q93075) 0.126
SUSD1 isoform 2 (UniProt Q6UWL2) 0.023
TAF5L (UniProt O75529) 0.086
SYTL4 (UniProt Q96C24) 0.045
TAF12 (UniProt Q16514) 0.035
STS (UniProt P08842) 0.159
SWI5 (UniProt Q1ZZU3) -0.016
TAGLN3 (UniProt Q9UI15) 0.014
SUFU (UniProt Q9UMX1) -0.072
TAGLN (UniProt Q01995) 0.042
SULT1E1 (UniProt P49888) 0.037

These targets were tested with CC[C@@H]1C(=O)N(C)c2cnc(Nc3ccc(C(=O)NC4CCN(C)CC4)cc3OC)nc2N1C1CCCC1 in the same assay as above.
Summary of the method: as §1

log2 fold change, inactive:
STXBP5L (UniProt Q9Y2K9) 0.124
SYP (UniProt P08247) -0.018
STOML1 (UniProt Q9UBI4) 0.038
SUGT1 isoform 2 (UniProt Q9Y2Z0) -0.075
TATDN2 (UniProt Q93075) 0.071
TBC1D12 (UniProt O60347) -0.148
SUSD1 isoform 2 (UniProt Q6UWL2) 0.17
SYS1 (UniProt Q8N2H4) -0.082
TAF5L (UniProt O75529) -0.043
SYNGR1 isoform 3 (UniProt O43759) 0.097
STON2 isoform 3 (UniProt Q8WXE9) -0.042
TAF12 (UniProt Q16514) -0.037
STS (UniProt P08842) 0.158
TAOK2 (UniProt Q9UL54) 0.024
TAGLN (UniProt Q01995) 0.08
